Experimental data from patent US11524945B2, “Compounds for treating ILK-mediated diseases” (The Cleveland Clinic Foundation, priority 2018, dated 2022).

Test system: Caco2 Cell Monolayer
Test: Assessment of Caco2 cell monolayer integrity
Format: in vitro ADME
Conditions: for LY LeakageA-B (%) / TEERA-B (Ω · cm^2): A-B; for LY LeakageB-A (%) / TEERB-A (Ω · cm^2): B-A

| Structure (SMILES) | LY LeakageA-B (%) | TEERA-B (Ω · cm^2) | LY LeakageB-A (%) | TEERB-A (Ω · cm^2) |
| --- | --- | --- | --- | --- |
| COc1cc2nc(N3CCN(C(=O)c4ccco4)CC3)nc(N)c2cc1OC [Prazosin] | 0.17 | 551 Ω · cm^2 | 0.26 | 556 Ω · cm^2 |
| C[C@H]1O[C@@H](O[C@H]2[C@@H](O)C[C@H](O[C@H]3[C@@H](O)C[C@H](O[C@H]4CC[C@@]5(C)[C@H](CC[C@@H]6[C@@H]5C[C@@H](O)[C@]5(C)[C@@H](C7=CC(=O)OC7)CC[C@]65O)C4)O[C@@H]3C)O[C@@H]2C)C[C@H](O)[C@@H]1O [Digoxin] | 0.23 | 520 Ω · cm^2 | 0.20 | 484 Ω · cm^2 |
| CC(C)NCC(O)COc1cccc2ccccc12 (stereo not shown) [Propranolol] | 0.32 | 353 Ω · cm^2 | 0.29 | 349 Ω · cm^2 |
| C#Cc1cc(Nc2ncnc3cc(OCCOC)ccc23)cc(OCCOCC)c1 [Compound 1] | 0.24 | 529 Ω · cm^2 | 0.18 | 547 Ω · cm^2 |
